# Experimental data as given in patent publication EP0199331A1, “Pharmacologically active peptides” (Brantl, Victor, Dr. med., Dipl.-Chem., priority 1985, dated 1986).
# Part of at least one peptide drawing is inferred or uncertain, most often the ends. Residues, ends and D or L forms follow the SMILES beside them. No end group written: not given here.
# Tested on: plexus myentericus/ Längsmuskel-Präparat des Meerschweinchenileums (GPI)
# Assay: Electrically stimulated myenteric plexus/longitudinal muscle preparation of guinea pig ileum (GPI), method of Schulz and Goldstein
# Design: species or system Meerschweinchen
# Details: result in words
row,Compound,opiatartige Wirkungen am elektrisch stimulierten plexus myentericus/ Längsmuskel-Präparat des Meerschweinchenileums (GPI)
1,C[C@@H](O)[C@H](NC(=O)[C@H](Cc1ccccc1)NC(=O)[C@@H]1CCCN1C(=O)[C@@H](N)Cc1ccc(O)cc1)C(=O)O [Tyr-Pro-Phe-Thr-OH] (H-YPFT-OH),spezifische opiatartige Wirkungen
2,YPFTI-OH [Tyr-Pro-Phe-Thr-Ile-OH],spezifische opiatartige Wirkungen
